Consider five molecules from US9546157B2, “Asymmetric piperidinyl-substituted ureas as medicines” (Helsinn Healthcare SA, priority 2014, dated 2017).

Sequences of proteins named here, by UniProt entry; tags and fusion partners are left off.
UniProt Q92847, whole entry: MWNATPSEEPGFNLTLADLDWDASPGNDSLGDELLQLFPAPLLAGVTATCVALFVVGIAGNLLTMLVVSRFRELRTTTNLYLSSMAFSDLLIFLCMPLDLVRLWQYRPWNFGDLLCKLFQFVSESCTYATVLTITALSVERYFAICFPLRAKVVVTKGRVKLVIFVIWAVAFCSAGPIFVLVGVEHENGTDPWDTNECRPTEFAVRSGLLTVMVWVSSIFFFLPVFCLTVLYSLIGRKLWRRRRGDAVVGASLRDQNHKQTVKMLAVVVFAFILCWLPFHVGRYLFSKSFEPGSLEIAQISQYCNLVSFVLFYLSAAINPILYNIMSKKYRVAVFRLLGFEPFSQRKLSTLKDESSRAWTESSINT

pEC50, pIC50: −log10 of the molar value. The match of structure and compound is tentative.

Assay [1] concerns the target T1, GHSR1a (Homo sapiens, UniProt Q92847). The experiment in a line: Calcium FLIPR assay, GHSR-1a agonism. Details: Emax: unit not given here. The conditions noted are these: HEK293/GHSR1a cells. On the procedure: (§1) The intracellular calcium assay was carried out in a 384-well format FLIPR™ (Molecular Device) HEK293/GHSR1a cell line. Cells were seeded 24 hr prior to the experiments at an optimal density per well. Preincubation with selected calcium dye lasted for 30-60 min at room temperature or 37° C. Test compounds, dissolved in DMSO, were added at the appropriate time and incubated for 15 min followed by the addition of ghrelin with FlexStation or FLIPR. Relative fluorescence was monitored by the FLIPR™ Molecular Device. EC50 and IC50 values were estimated from dose-response data using GraphPad Prism software. To check for GHSR-1a agonism the compound was added at t=20 sec. and the calcium response was followed for 2 minutes. To check for GHSR-1a antagonism the compound and Ghrelin (10 nM) were added to the cells at t=20 sec. and the calcium response was measured for 2 minutes. The potency of the antagonist was calculated by its ability to reduce the ghrelin response. Dose-response curves were made for relevant antagonists.

The target of assay [2] is T1, GHSR1a. The experiment in a line: Calcium FLIPR assay, GHSR-1a antagonism (reduction of ghrelin response). The conditions noted are these: HEK293/GHSR1a cells, ghrelin 10 nM. On the procedure:
as §1

The test system of a further assay is C57BL/6J mice. The experiment in a line: Food intake test in mouse (GHSR1a antagonists). As to conditions: i.p. 10 mg/kg. On the procedure:
Male C57BL/6J mice, 18-22 g body weight, were fasted overnight (16 h before compound administration) and placed in a regular light dark cycle (6:00-18:00 light/18:00-6:00 dark). After 1 wk acclimation, animals were sorted into two groups (n=6 each, 2 per cage) based on body weight. Animals in group one were be treated with vehicle and animals in group 2 were treated with the test agent (n=6 for each group). The cumulative food intake was evaluated at 1, 2, 4, 8 and 24 hrs after drug or vehicle treatment. Food intake was measured by subtracting uneaten food from the initial premeasured food.

As usually defined, the pEC50 is −log10 of the EC50, conventionally taken in molar units. One may read the pIC50 as the negative decadic logarithm of the IC50, by convention in mol/L.

Consider `CN1CCC(N(C)C(=O)NC(C#N)c2ccc(I)c(Br)c2Cl)CC1` (centres unmarked), for which, on GHSR1a [1], the pEC50 is 9.00 and the Emax was found to be 5075. Also, the pIC50 at GHSR1a [2] is 8.52.
As to `CN1CCC(N(C)C(=O)NC(C#N)c2ccc(-c3cn[nH]c3)c(Cl)c2Cl)CC1` (centres unmarked), the “Mouse Food Intake inhibition, activity up to” value in the assay with C57BL/6J mice is listed as no more than 8 h. Also, in the assay on C57BL/6J mice (at 1 h), the “Mouse Food Intake % Inhibition” value is on record as 57%. Also, on GHSR1a [1], the negative-log EC50 (pEC50) is less than 4.52. On GHSR1a [2], the negative logarithm of the IC50 (pIC50) was 7.32.
Turning to `CN1CCC(N(C)C(=O)NC(C#N)c2ccc(-c3cncc(-c4ccc[nH]4)c3)c(Cl)c2Cl)CC1` (centres unmarked), the negative logarithm of the EC50 (pEC50) on GHSR1a [1] is less than 4.52. For the same molecule, on GHSR1a [2], the pIC50 was 7.41.
In the case of `CN1CCC(N(C)C(=O)NC(CO)c2ccc(-c3cccs3)c(Cl)c2Cl)CC1` (centres unmarked), at GHSR1a [1], the pEC50 was 8.22 and the Emax came out at 2280. In addition, the pIC50 at GHSR1a [2] was 8.70.
As to `COC(=O)c1cnc(-c2ccc(C(C)NC(=O)N(C)C3CCN(C)CC3)c(Cl)c2Cl)cn1` (centres unmarked), the pEC50 at GHSR1a [1] is less than 4.52. In addition, the pIC50 on GHSR1a [2] is 6.50.
